Data reported in the supplement of paper PMC10849652.
Some of the results follow.

Protein sequences, listed by entry. Tags and fused reporters are not part of them. Lines headed by an entry give the natural chain unless they say otherwise; changes in a name come on top.
UniProt Q15785: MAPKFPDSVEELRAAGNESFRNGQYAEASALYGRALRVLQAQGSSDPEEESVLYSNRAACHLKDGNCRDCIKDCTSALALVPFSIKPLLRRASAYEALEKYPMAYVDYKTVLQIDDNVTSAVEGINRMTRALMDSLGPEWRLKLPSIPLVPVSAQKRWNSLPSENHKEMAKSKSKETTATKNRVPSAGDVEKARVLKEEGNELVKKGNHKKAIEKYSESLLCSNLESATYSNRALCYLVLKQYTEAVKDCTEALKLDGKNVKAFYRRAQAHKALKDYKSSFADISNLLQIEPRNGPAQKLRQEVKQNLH
UniProt Q96S44: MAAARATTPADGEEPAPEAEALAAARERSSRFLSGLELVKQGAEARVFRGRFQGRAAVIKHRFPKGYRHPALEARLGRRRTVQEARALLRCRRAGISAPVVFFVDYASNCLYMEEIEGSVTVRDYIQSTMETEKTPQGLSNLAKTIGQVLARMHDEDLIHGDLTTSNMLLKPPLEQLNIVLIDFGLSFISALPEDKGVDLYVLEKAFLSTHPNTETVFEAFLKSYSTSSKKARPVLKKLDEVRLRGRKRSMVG
UniProt O75157: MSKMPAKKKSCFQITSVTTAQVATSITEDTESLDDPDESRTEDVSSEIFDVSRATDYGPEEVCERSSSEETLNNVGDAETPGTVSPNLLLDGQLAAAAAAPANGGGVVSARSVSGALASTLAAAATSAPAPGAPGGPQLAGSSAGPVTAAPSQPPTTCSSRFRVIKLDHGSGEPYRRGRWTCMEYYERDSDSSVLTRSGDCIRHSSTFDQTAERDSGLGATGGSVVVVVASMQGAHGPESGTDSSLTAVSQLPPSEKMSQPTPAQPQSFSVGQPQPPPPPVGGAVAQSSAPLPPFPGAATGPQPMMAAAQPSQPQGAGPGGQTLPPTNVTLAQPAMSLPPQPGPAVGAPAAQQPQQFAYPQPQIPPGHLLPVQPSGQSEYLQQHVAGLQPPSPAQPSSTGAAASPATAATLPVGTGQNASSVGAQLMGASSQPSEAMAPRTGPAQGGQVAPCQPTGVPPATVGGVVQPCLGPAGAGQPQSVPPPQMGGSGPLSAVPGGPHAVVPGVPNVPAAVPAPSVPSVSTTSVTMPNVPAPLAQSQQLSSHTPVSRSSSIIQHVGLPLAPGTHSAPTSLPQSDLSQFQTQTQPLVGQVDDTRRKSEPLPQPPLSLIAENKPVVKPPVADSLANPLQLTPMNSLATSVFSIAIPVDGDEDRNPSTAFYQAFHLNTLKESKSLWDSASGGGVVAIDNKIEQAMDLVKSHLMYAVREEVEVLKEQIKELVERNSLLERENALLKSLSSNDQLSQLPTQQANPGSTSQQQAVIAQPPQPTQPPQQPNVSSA
UniProt Q9UKE5: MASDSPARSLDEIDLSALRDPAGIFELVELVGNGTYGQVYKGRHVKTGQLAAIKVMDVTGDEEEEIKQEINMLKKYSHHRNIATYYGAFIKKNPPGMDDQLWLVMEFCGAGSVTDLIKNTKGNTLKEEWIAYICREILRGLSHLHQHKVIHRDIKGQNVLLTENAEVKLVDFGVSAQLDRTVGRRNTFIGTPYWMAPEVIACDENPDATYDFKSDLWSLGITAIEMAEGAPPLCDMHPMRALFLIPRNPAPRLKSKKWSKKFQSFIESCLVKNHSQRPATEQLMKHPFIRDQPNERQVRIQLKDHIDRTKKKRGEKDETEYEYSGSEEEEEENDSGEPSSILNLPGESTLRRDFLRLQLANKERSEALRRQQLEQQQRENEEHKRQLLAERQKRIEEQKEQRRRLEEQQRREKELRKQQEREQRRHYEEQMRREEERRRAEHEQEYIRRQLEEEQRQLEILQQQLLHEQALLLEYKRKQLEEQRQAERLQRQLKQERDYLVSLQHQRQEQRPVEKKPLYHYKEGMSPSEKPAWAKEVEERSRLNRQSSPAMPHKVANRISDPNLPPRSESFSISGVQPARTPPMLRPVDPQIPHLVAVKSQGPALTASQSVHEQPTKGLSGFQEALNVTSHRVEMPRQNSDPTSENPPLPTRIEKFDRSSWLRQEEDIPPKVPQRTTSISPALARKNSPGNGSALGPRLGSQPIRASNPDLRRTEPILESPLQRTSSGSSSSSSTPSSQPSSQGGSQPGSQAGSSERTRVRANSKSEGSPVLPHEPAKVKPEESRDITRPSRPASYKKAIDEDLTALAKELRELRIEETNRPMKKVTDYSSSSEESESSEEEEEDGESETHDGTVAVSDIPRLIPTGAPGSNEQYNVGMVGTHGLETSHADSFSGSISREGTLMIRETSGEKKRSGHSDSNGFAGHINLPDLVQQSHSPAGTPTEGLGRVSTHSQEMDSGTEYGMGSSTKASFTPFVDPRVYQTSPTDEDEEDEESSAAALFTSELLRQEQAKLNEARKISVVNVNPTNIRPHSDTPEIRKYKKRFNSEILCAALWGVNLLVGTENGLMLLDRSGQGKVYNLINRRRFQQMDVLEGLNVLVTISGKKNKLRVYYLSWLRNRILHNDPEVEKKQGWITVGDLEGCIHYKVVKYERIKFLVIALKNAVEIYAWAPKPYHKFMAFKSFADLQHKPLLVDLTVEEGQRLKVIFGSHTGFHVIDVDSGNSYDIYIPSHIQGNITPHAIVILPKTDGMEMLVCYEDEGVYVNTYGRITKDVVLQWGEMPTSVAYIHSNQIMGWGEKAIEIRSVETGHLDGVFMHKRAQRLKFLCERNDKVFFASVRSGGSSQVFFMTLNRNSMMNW
UniProt Q9Y4A5, whole entry, looked up: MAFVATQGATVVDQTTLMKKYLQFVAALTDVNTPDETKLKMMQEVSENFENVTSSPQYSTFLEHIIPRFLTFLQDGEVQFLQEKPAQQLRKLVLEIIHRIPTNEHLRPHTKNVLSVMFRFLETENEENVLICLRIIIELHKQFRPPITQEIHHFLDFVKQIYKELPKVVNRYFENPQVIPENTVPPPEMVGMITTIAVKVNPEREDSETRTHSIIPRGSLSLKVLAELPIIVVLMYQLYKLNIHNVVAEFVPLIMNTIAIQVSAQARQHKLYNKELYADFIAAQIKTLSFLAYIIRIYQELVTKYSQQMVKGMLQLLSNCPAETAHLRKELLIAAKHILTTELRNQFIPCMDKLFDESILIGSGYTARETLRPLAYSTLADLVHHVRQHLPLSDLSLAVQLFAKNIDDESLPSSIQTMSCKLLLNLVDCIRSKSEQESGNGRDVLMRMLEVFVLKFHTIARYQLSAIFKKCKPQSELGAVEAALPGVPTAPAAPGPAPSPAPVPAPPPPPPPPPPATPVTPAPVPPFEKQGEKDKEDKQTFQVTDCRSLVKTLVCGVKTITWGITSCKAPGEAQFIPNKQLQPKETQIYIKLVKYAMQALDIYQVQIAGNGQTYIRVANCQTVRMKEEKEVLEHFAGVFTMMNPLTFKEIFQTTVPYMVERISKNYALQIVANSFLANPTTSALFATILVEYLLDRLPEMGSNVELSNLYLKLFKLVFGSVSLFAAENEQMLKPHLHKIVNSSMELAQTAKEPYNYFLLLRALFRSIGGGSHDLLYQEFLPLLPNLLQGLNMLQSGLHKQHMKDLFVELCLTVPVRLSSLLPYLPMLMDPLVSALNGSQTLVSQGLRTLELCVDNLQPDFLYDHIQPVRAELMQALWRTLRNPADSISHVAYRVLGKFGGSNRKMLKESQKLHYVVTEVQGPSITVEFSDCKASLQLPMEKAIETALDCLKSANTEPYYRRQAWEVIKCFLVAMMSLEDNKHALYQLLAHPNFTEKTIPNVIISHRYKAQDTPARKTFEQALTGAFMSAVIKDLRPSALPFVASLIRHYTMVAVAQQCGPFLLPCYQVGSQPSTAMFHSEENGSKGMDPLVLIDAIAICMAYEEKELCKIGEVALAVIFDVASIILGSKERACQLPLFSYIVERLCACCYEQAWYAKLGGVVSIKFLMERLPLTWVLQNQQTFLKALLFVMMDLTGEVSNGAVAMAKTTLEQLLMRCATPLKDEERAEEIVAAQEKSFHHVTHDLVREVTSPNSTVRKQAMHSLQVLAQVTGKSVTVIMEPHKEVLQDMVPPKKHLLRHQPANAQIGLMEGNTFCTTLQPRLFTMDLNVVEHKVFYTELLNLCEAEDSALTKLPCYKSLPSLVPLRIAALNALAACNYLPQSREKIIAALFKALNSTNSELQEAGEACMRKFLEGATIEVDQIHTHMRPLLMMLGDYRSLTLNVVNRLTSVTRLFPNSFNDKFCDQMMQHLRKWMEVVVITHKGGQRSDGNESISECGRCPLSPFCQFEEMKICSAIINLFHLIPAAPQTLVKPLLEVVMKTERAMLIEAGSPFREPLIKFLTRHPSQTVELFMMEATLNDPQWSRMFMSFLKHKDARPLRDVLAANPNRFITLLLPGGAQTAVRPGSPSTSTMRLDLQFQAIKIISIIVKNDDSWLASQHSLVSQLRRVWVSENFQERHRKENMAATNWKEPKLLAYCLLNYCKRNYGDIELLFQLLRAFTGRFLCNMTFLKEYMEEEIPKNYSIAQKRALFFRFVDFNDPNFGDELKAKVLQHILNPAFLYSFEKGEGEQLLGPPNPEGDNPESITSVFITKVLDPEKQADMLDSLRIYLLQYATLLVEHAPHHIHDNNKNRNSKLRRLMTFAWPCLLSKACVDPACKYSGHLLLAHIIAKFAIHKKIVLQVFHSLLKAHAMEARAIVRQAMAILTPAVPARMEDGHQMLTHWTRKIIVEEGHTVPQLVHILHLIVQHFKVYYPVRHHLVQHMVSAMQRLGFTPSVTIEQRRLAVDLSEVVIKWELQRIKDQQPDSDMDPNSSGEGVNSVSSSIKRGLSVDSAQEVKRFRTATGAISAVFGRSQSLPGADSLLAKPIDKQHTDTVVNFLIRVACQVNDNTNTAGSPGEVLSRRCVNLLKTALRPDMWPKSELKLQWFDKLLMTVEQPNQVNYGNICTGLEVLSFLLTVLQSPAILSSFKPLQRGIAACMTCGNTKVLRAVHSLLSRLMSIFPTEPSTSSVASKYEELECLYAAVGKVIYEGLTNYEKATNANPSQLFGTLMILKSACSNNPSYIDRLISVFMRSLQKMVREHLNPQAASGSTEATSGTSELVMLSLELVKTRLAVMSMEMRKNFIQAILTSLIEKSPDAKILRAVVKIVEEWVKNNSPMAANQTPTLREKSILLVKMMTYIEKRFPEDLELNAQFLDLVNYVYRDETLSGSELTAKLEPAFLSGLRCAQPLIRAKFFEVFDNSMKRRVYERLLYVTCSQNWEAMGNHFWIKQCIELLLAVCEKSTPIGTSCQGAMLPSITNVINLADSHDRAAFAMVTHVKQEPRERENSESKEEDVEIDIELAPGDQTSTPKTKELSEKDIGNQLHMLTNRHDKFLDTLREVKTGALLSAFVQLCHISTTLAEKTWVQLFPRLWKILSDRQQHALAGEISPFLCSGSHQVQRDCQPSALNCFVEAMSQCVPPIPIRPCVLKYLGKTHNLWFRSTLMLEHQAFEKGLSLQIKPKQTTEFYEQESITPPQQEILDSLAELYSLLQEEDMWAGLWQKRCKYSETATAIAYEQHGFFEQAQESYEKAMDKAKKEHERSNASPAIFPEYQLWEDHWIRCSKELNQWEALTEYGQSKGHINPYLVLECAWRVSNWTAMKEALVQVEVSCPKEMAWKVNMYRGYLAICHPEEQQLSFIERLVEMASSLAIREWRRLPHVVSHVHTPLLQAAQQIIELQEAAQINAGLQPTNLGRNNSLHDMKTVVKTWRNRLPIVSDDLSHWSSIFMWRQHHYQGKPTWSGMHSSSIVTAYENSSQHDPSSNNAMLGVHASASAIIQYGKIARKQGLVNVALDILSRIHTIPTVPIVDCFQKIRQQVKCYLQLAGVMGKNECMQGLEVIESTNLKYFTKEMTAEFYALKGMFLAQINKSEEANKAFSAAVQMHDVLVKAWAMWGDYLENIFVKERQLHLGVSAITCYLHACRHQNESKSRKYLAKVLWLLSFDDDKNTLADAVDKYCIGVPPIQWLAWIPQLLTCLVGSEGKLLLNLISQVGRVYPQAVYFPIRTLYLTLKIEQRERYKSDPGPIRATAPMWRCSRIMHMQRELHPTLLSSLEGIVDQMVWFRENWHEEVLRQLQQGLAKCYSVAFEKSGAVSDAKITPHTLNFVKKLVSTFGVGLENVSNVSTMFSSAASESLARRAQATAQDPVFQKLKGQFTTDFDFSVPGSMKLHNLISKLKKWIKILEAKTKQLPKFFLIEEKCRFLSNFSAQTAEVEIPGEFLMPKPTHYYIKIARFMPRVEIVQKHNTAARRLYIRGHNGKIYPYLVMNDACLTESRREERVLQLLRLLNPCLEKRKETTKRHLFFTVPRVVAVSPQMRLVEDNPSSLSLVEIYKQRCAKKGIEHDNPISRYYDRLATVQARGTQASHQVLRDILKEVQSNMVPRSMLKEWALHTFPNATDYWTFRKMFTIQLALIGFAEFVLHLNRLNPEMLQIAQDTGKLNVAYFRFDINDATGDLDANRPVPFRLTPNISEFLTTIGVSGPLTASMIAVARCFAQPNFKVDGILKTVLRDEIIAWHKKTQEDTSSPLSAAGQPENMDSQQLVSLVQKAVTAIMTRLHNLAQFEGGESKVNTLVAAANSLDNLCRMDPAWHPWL

These targets were tested with C#Cc1cccc(Nc2ncnc3cc(OCCOC)c(OCCOC)cc23)c1 [erlotinib] (assay: log2 fold change, soluble protein after heating vs DMSO (PISA); higher = thermal stabilisation; K562 cells, 10 uM, 30 min; active = over 0.2 and 3.5 SD of the protein, either way, in both replicates (recomputed)).
How it was run: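 K562 cells (2×10^6 cells/mL) were treated with 10 μM compound for 30 min, and aliquots were heated for 3 min over 48°C-58°C. Pooled aliquots were extracted in PBS with 0.5% NP-40 at 4°C, and the supernatant after 21,000xg for 90 min was measured by TMTpro 16plex LC-MS/MS with channel sums equalised. Reported thermal stability, relative to control samples and from duplicates, is a log2 fold change.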

log2 fold change, inactive:
TRIM25 (UniProt Q14258) 0.031
TOMM34 (UniProt Q15785) 0.156
TRIP11 (UniProt Q15643) 0.127
TRIM24 (UniProt O15164) 0.092
TPP2 (UniProt P29144) -0.074
TSEN34 (UniProt Q9BSV6) 0.038
TRIAP1 (UniProt O43715) -0.028
TP53RK (UniProt Q96S44) 0.021
TRIP13 (UniProt Q15645) 0.022
TRIO (UniProt O75962) 0.329
TSC22D2 (UniProt O75157) -0.012
TRAPPC10 (UniProt P48553) -0.079
TRMT112 (UniProt Q9UI30) 0.053
TOMM70 (UniProt O94826) 0
TOMM40 (UniProt O96008) -0.006
TOP2B (UniProt Q02880) 0.04
TNIK isoform 6 (UniProt Q9UKE5) 0.004
TOR4A (UniProt Q9NXH8) -0.031
TOP1 (UniProt P11387) 0.012
TPM4, A0A2R8Y5V9 0.014
TRAF6 (UniProt Q9Y4K3) -0.067
TRRAP (UniProt Q9Y4A5) -0.017
TOP3B (UniProt O95985) -0.012
TNFRSF1B (UniProt P20333) -0.08

Random excerpt: two entries already listed
log2 fold change, inactive:
TOMM34 (UniProt Q15785) 0.156
TNIK isoform 6 (UniProt Q9UKE5) 0.004
